In paper PMC5550480:
The exact form of at least one protein or probe is not confirmed. A negative result means that nothing was seen under these conditions. At least one verdict was read from the data and is not stated in words by the source.

Amino acid sequences for entries named in this document (tags omitted).
UniProt Q13148, whole entry: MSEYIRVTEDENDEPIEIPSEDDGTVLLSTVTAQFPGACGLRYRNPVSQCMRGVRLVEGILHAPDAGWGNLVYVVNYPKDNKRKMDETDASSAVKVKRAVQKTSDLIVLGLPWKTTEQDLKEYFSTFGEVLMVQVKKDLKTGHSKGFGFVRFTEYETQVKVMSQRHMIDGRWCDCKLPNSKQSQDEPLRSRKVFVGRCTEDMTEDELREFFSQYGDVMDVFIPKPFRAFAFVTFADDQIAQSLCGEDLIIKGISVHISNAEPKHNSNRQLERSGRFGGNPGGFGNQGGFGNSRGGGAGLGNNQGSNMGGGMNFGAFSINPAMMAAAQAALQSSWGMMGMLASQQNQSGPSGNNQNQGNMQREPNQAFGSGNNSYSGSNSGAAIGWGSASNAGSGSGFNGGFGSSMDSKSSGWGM

Target: TF-TDP-43 (TF-TDP-43-FL) (Homo sapiens) (UniProt Q13148)
Assay: EMSA
Conditions: 1 mM MgCl2; EMSA: 40 mM Tris-HCl pH 7.4, 30 mM KCl, 1 mM MgCl2, 0.01% IGEPAL CA-630, 1 mM DTT, 10 ug yeast tRNA, 10 ug BSA, 10 ng RNA, 200 ng protein in 10 ul; recombinant protein; residues 1-414; letters put together from the description

Sequence | binding result
GGGAGAUAGAUUGAAGCCAGUUGAUUAGGGUGCUUAGCUGUUAACUAAGCAGUCGUGGGUUUAAGUCCCAUUGGUCUAG [Var-R(Leu)] | no binding
GGGAGAGUUAAGAUGGCAGAGCCCGGUAAUCGCAUAAAACUUAAAACUUUACAGUCAGAGGUUCAAUUCCUCUUCUUAACA [mt-tRNALeu(UUR)] | no binding
